Some of the results follow.
These sequences were tested against OsWRKY34 (Oryza sativa, UniProt Q0JBA9 1-250) (assay: protein-binding microarray (RPBM); PBS, 2% BSA, 51.3 ng/ul salmon testes DNA, 50 uM zinc acetate, 200 nM TF, 25 C, 1 h; high values mean tight binding). Conditions: protein: recombinant; tags: N-terminal polyhistidine and DsRed monomer fusion (pET32a); label: CyDye5-dUTP incorporated in the synthesized complementary strand; 3' TTTTT single-stranded linker to array surface; dsDNA, one strand shown.
Procedure, shortened: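 Ni–NTA purification followed expression in E. coli BL21-CodonPlus of transcription factors fused N-terminally to a polyhistidine tag and DsRed. At 200 nM in PBS with 2% BSA, salmon testes DNA and 50 µM zinc acetate, the protein was incubated for 1 h at 25 °C with a custom Agilent array that had been primer-extended with Cy5-dUTP and blocked with 2% BSA. After washing, the array was read on an Axon 4000B scanner. The binding signal is per-feature fluorescence intensity in arbitrary units.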

Amino acid sequences for entries named in this document (tags omitted).
UniProt Q0JBA9, entry or part of it: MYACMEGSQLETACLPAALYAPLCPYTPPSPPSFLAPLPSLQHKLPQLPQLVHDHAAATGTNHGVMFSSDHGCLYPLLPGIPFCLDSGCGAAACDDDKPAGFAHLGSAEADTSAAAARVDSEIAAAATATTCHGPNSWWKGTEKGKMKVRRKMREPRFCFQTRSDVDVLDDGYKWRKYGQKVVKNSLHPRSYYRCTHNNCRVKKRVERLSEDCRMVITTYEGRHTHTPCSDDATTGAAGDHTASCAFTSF

Sequence	binding signal
GAGCTCACCACACACTCGCTACCCTACTTCTTCTGTTCGTCGGAGTCACCTAGTGCAG	9820 fluorescence intensity (a.u.)
ATGTTTTTCAAAAATACTAACCAGTGTGTTCTTTTTTTTTCGGAGTCACCTAGTGCAG	8500 fluorescence intensity (a.u.)
ATTTCGGATTTGTATGTATTGTGTTTTTTTAAAAAAAATTCGGAGTCACCTAGTGCAG	9880 fluorescence intensity (a.u.)
ATTTTGGCTTCAATCCAAACACAATTTTACCTTTGCCAAACGGAGTCACCTAGTGCAG	8030 fluorescence intensity (a.u.)
ATCTGATCCCTGCTCGATCTCTTCTACTACCGAAACACAACGGAGTCACCTAGTGCAG	8520 fluorescence intensity (a.u.)
TACACACGCTAGAGGAGGAGATGGGTTGGTAGAGGGGAGGCGGAGTCACCTAGTGCAG	8580 fluorescence intensity (a.u.)
ATTATGGTGTTTCTTAATTGCTTTTTGCTTTTTATTATATCGGAGTCACCTAGTGCAG	8170 fluorescence intensity (a.u.)
CTCTCCATCAGCAAGCAAGGTATCGATCAGGCATCACCCACGGAGTCACCTAGTGCAG	9800 fluorescence intensity (a.u.)
GAGTGGTTAAGGTATGGATGAGGTCTATATGTATACATGTCGGAGTCACCTAGTGCAG	9050 fluorescence intensity (a.u.)
CACTCACACACACACACAATACAACAAGCCTACAACTCATCGGAGTCACCTAGTGCAG	8440 fluorescence intensity (a.u.)
GACCTGTTTTTCATTTTAAACCAGAGCTACCGATGGGTTTCGGAGTCACCTAGTGCAG	8520 fluorescence intensity (a.u.)
TTCGCTCTATCTTCCTTGTCGTGGCCACTCTCGTTTTCATCGGAGTCACCTAGTGCAG	9430 fluorescence intensity (a.u.)
ATGCAAGCTAGTGTGATCCAGGGGTTCGTTTTGTTTCTTGCGGAGTCACCTAGTGCAG	10100 fluorescence intensity (a.u.)
TTCATGTATAGCTCATCCTACTAATCATTTCACACTAGTTCGGAGTCACCTAGTGCAG	8370 fluorescence intensity (a.u.)
AACCTCACTCTTGTATAGAACGACAAGTATTATCGGCCCACGGAGTCACCTAGTGCAG	8460 fluorescence intensity (a.u.)
TGTCGTGGTGTTTTTACTTCTTATTCAGTTTTTTTATACTCGGAGTCACCTAGTGCAG	11600 fluorescence intensity (a.u.)
TATAAGTCATTTGACTTTTTTTCTAGCTAAACTTCTTTAACGGAGTCACCTAGTGCAG	10400 fluorescence intensity (a.u.)
CTATTAATGGGGATTGGGGATGGATTGTGTTGAGCTGGAACGGAGTCACCTAGTGCAG	10500 fluorescence intensity (a.u.)
TTGGGGTTTTTAGAATATCTATACATTTGTTGATAAATTTCGGAGTCACCTAGTGCAG	8640 fluorescence intensity (a.u.)
TCACAATTCTTCACTTACCTGAAACGCGACGACCATATCACGGAGTCACCTAGTGCAG	8500 fluorescence intensity (a.u.)
CGAGGGAGGGGAGGAGGAGGAGAGTGGCGGCGGCGGCGGCCGGAGTCACCTAGTGCAG	8750 fluorescence intensity (a.u.)
AAAAGGCGCGGTGACCACGGCAGACTTGCGGTGGATGGGGCGGAGTCACCTAGTGCAG	8590 fluorescence intensity (a.u.)
ACACTCTAAAACTACTAGATTTTCATCATTTTGTTACAGCCGGAGTCACCTAGTGCAG	8680 fluorescence intensity (a.u.)
GATGACCTTGCAAGTATAATCTCGTGTCATCAGGCAAACGCGGAGTCACCTAGTGCAG	8850 fluorescence intensity (a.u.)
GCTATATTCCAGTTTGTGTAATTGTGTTGCCATCTATTAACGGAGTCACCTAGTGCAG	9720 fluorescence intensity (a.u.)
TTGCACTACATTTTTTTTTCCTTATGATTAGCCTACTACACGGAGTCACCTAGTGCAG	10600 fluorescence intensity (a.u.)
TTCTCGCCGTCTTCTCTTCTCCACCACCTCGCTGCCTTCTCGGAGTCACCTAGTGCAG	8690 fluorescence intensity (a.u.)

Sequence	binding signal
GGCTAGCCTCCGCAGACACACGCCATCCGAAATTCCCGTACGGAGTCACCTAGTGCAG	8950 fluorescence intensity (a.u.)
GCGGCACATCCATCTTTTTCCACGACCGCCTCCGCCGCGCCGGAGTCACCTAGTGCAG	8680 fluorescence intensity (a.u.)
CTACCTCACCCATGGCTGCTTCCTGGCCACAGCAACCCACCGGAGTCACCTAGTGCAG	8980 fluorescence intensity (a.u.)
GACACCATATCCGCATCCGCATCCGCATCCATCTCATACTCGGAGTCACCTAGTGCAG	9580 fluorescence intensity (a.u.)
TCCCGCATGTGTTGTGTGATGTGTCTCGTCTCCGCCACCACGGAGTCACCTAGTGCAG	11400 fluorescence intensity (a.u.)
CTCTTGCTCTGCTCTGTTTTTGGCCCATCCTCACCCACAACGGAGTCACCTAGTGCAG	10600 fluorescence intensity (a.u.)
ATTGATTTATGACTGTATATTTTTTATCATGTTGTGCTTTCGGAGTCACCTAGTGCAG	9310 fluorescence intensity (a.u.)
TCTCGTGTTTCTCGCGCCCCAATTAATCCACGGGCCACAACGGAGTCACCTAGTGCAG	9070 fluorescence intensity (a.u.)
TAGTGATAAATGTTTTTGTTTCTTTGTGCATATCGAATTTCGGAGTCACCTAGTGCAG	8960 fluorescence intensity (a.u.)
TCCATCCTCGACACCACCGTCTCCGCTTCCCTTTCCATTCCGGAGTCACCTAGTGCAG	11600 fluorescence intensity (a.u.)
TTGATGAACTTATTTCCTTTTCGTAATCCGGGCCCACCAACGGAGTCACCTAGTGCAG	9680 fluorescence intensity (a.u.)
TAGTACCTTCCCTTTTGGTTTATTGAGTCGATTGGGTCGACGGAGTCACCTAGTGCAG	8040 fluorescence intensity (a.u.)
ATTTTCTATTATTTATTTTTTTAGGCCTAATCCTTCTTCCCGGAGTCACCTAGTGCAG	8480 fluorescence intensity (a.u.)
GGCTACGACTTCCCTTCATCTCGCCGCTATAAGTATCCCGCGGAGTCACCTAGTGCAG	8670 fluorescence intensity (a.u.)
GCACATGCTGAAAAACACACACACACACACATTATTTTTTCGGAGTCACCTAGTGCAG	8470 fluorescence intensity (a.u.)
TTTCTCCTCACCGTCCGAACGGGCTCACCGGCCCCTCCCTCGGAGTCACCTAGTGCAG	9320 fluorescence intensity (a.u.)
CATTGTGTGGAAGTACTATCTTTTGCATGCAGGTCTCCTACGGAGTCACCTAGTGCAG	8190 fluorescence intensity (a.u.)
CCTATCCATGATCGCGTCCCGCCCGCGCGCCGCGCGCGCGCGGAGTCACCTAGTGCAG	9940 fluorescence intensity (a.u.)
AGAGCGGGTGGGAGGCGAAGTAGACAGGGGCGGGGCGCATCGGAGTCACCTAGTGCAG	15700 fluorescence intensity (a.u.)
CAGATCACAACCCTGCACTGGCTAGCTATATATACACATACGGAGTCACCTAGTGCAG	11800 fluorescence intensity (a.u.)
TGACTCCTGCTGCGCTCTCAGCGTCTGTATTCTCCTCAGTCGGAGTCACCTAGTGCAG	9280 fluorescence intensity (a.u.)
CTTATCTTCTGAAAATTATGTTGTGTTCTTCTCCTCTTACCGGAGTCACCTAGTGCAG	8100 fluorescence intensity (a.u.)
CCTAATCCGCGTTCTCCCTTCTTTCTACTCGCCTCCGCCTCGGAGTCACCTAGTGCAG	8940 fluorescence intensity (a.u.)
GCCTCACATGCTTTTTATTTTTTTTTTCTGACTAGAATTTCGGAGTCACCTAGTGCAG	10500 fluorescence intensity (a.u.)
GCTACTATCACTTCATGCTCATATTATCTCGACGTTTTACCGGAGTCACCTAGTGCAG	10800 fluorescence intensity (a.u.)
TTCCTCCATCCATTTTGTCAACTCCTCTCCGCTTTTCATCCGGAGTCACCTAGTGCAG	9640 fluorescence intensity (a.u.)
ATCTCACCATCCCATCCACGCTTCTCGACTCCCAGACGACCGGAGTCACCTAGTGCAG	9740 fluorescence intensity (a.u.)

Two entries drawn at random from the list so far, as already listed:
Sequence	binding signal
GCTACTATCACTTCATGCTCATATTATCTCGACGTTTTACCGGAGTCACCTAGTGCAG	10800 fluorescence intensity (a.u.)
TTGATGAACTTATTTCCTTTTCGTAATCCGGGCCCACCAACGGAGTCACCTAGTGCAG	9680 fluorescence intensity (a.u.)
